# Results as given in PubChem BioAssay (Tox21).
# Chains of the proteins cited; added tags and fusions are not shown. Lines headed by an entry give the natural chain unless they say otherwise; changes in a name come on top.
# UniProt O75469: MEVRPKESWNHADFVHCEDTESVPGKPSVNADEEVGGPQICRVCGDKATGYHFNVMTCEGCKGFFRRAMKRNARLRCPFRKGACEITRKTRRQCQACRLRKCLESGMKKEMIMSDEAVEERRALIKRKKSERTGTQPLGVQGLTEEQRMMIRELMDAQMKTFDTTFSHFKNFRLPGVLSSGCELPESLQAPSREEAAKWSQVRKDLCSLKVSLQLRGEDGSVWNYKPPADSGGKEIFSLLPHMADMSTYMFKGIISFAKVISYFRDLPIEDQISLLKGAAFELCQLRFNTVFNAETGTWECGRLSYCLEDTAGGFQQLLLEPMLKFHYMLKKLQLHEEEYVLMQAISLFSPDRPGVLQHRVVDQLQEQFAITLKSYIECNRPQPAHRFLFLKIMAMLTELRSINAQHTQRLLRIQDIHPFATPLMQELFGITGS
# UniProt P37231: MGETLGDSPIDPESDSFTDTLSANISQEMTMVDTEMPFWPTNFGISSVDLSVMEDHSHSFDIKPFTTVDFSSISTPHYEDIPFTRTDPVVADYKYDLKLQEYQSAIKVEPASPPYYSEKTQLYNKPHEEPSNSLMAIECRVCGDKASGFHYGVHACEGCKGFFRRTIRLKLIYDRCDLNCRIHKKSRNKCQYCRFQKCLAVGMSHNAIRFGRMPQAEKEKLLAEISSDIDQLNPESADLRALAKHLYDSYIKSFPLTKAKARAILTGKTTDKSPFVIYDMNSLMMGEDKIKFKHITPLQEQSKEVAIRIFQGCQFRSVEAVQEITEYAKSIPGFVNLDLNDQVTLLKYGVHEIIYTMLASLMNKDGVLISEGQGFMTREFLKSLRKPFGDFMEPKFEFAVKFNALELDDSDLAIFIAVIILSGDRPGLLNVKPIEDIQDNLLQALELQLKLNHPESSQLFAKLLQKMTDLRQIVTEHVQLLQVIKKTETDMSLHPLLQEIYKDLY
# UniProt Q92731, whole entry, looked up: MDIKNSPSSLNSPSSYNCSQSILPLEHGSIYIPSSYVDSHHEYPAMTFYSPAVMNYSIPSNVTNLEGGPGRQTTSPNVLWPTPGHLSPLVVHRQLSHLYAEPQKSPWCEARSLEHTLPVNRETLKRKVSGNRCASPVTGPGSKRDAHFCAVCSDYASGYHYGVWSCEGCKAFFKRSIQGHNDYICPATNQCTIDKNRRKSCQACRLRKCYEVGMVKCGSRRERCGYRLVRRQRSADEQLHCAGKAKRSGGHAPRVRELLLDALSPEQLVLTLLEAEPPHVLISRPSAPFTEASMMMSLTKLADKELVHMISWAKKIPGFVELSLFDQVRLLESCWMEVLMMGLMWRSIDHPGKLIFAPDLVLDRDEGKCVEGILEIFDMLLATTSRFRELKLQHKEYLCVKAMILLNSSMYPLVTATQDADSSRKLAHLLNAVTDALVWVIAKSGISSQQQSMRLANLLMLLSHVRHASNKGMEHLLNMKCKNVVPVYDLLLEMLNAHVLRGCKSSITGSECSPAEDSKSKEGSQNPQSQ
# UniProt P03372, whole entry, looked up: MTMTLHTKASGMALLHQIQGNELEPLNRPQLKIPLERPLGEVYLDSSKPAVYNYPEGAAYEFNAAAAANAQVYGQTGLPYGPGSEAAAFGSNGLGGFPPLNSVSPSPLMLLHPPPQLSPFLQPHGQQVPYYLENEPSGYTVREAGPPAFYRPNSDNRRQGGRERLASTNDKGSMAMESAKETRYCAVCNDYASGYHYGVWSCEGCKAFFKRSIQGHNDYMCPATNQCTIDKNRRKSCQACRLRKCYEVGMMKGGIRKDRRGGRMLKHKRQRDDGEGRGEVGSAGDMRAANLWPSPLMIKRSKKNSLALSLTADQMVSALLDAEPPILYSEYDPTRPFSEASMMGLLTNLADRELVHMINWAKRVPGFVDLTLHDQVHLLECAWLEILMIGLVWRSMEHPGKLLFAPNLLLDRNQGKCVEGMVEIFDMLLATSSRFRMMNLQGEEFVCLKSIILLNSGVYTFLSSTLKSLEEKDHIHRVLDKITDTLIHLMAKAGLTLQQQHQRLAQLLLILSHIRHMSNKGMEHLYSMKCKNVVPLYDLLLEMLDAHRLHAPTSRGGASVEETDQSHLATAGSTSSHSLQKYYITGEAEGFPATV
# UniProt Q96RI1: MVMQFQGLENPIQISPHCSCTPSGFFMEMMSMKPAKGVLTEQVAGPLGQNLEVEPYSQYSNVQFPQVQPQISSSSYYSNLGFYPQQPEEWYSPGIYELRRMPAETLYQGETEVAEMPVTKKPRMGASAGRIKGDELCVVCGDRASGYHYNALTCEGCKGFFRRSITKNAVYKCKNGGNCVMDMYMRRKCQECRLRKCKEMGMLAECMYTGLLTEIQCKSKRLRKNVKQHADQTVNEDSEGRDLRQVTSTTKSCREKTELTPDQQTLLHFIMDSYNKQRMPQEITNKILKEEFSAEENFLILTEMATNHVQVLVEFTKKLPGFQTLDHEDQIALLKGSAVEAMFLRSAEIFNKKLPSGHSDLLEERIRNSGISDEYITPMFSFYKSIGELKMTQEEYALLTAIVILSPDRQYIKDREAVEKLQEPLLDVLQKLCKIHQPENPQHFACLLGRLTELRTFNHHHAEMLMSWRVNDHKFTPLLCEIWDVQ
# The inconclusive results got no clear call from the source; some entries with a clear call stand among them for comparison. Where a call stands in place of a potency, no number is given. For some assays here: A potency beside an inconclusive call is a rough fit, not a confirmed value. Active and inactive are the calls of the source. Unless noted, calls come from the whole dose curve; as a rule, active = well fitted curve in the direction sought with a large enough effect in the repeat runs; inconclusive = weak or mixed curves; inactive = no such curve, though single readings can be large; an effect the other way counts as inactive or inconclusive.
# Columns and labels:
# [1] = target: Nuclear receptor subfamily 1 group I member 2 (Homo sapiens) (UniProt O75469); experiment: Human pregnane X receptor (PXR) small molecule agonists, qHTS assay (AID 1346982); note: nearly all actives have a fitted effect of over 35% in size; note: potency is the fitted concentration of half-maximal effect
# In short: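 Luminescence (ONE-Glo, 30 min RT) after 24 hr compound exposure of PXR-Luc HepG2 cells; cells rested 5 hr post-plating in 5% charcoal-stripped FBS medium.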
# [2] = target: Peroxisome proliferator-activated receptor gamma (Homo sapiens) (UniProt P37231); experiment: qHTS assay to identify small molecule agonists of the peroxisome proliferator-activated receptor gamma (PPARg) signaling pathway (AID 743094; active = well fitted activation curve with a large enough effect in the signal ratio in the repeat runs, not every such curve was filed as active; inconclusive = weak or mixed curves, or effect the other way; inactive = no such curve, though single readings can be large or run the other way; the % refers to the signal ratio); conditions: HEK293H PPARg-UAS-bla, beta-lactamase FRET ratio, 17 h; activation: at 57 µM (top of the series) unless noted
# In short: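 Stably transfected HEK293H cells (GeneBLAzer PPARg UAS-bla) were incubated with test substances for 17 h at 37C after a 5 h pre-incubation; beta-lactamase activity was then detected by FRET substrate fluorescence.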
# [3] = qHTS assay to identify small molecule agonists of the vitamin D receptor (VDR) signaling pathway - cell viability counter screen (AID 743224); note: nearly all actives have a fitted effect of over 50% in size; note: potency is the fitted concentration of half-maximal effect
# In short: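 VDR-bla cell line, quantitative HTS format; 16 h compound incubation (37C, 5% CO2); ATP-based CellTiter-Glo luminescence measured in the reporter assay wells.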
# [4] = qHTS RealTime-Glo MT Cell Viability Assay in HEK293 cells - 32 hour (AID 1224868); note: top concentration of the series differs between compounds; nearly all actives have a fitted effect of over 50% in size
# In short: (§1)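 HEK293 cells seeded with NanoLuc/prosubstrate reagent, rested 5 h at 37 C, then dosed and kept at 37 C up to 40 h. Nonlytic real-time luminescence from viable cells read at 0, 8, 16, 24, 32 and 40 h.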
# [5] = target: Estrogen receptor beta (Homo sapiens) (UniProt Q92731); experiment: qHTS assay to identify small molecule agonists of the estrogen receptor beta (ER-beta) signaling pathway (AID 1259377; active = well fitted activation curve with a large enough effect in the signal ratio in the repeat runs, not every such curve was filed as active; inconclusive = weak or mixed curves, or effect the other way; the % refers to the signal ratio; note: potency is the fitted concentration of half-maximal effect); conditions: ER-beta-UAS-bla HEK293T, beta-lactamase FRET ratio, 16 h; activation: at 92.4 µM (top of the series) unless noted
# In short: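 Ratiometric beta-lactamase FRET read-out came after 2 h substrate loading at room temperature. It followed 16 h compound treatment at 37C of GripTite HEK293T cells carrying a UAS-bla reporter, plated in 2% charcoal-stripped FBS medium.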
# [6] = qHTS assay to identify small molecule agonists of H2AX (AID 1224845; active = well fitted activation curve with a large enough effect in the signal ratio in the repeat runs, not every such curve was filed as active; inconclusive = weak or mixed curves; the % refers to the signal ratio); conditions: CHO-K1 phospho-H2AX Ser139 HTRF, 3 h; activation (H2AX phosphorylation): at 154 µM (top of the series) unless noted
# In short: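 Wild-type CHO-K1 cells plated overnight, then exposed 3 hr at 37C to compounds at 15 concentrations (0.76% DMSO). Lysed, then HTRF anti-pH2AX(S139)-cryptate/anti-H2AX-d2 detection after 24 hr at room temperature; emissions 665 and 620 nm.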
# [7] = qHTS assay to identify small molecule antagonists of the progesterone receptor (PR) signaling pathway - cell viability counter screen (AID 1346798); note: nearly all actives have a fitted effect of over 50% in size; note: potency is the fitted concentration of half-maximal effect
# In short: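 Cytotoxicity read as CellTiter-Glo luminescence (30 min, room temperature) in the same wells as the beta-lactamase readout. HEK293T PR-UAS-bla cells in charcoal-stripped 2% FBS received compound and R5020, then 16 h at 37C, 5% CO2.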
# [8] = qHTS assay to identify small molecule antagonists of the estrogen receptor alpha (ER-alpha) signaling pathway - cell viability counter screen (AID 743074; calls by dose curve; note: nearly all actives have a fitted effect of over 45% in size; note: potency is the fitted concentration of half-maximal effect)
# [9] = qHTS RealTime-Glo MT Cell Viability Assay in HEK293 cells - 16 hour (AID 1224872); note: nearly all actives have a fitted effect of over 50% in size; note: potency is the fitted concentration of half-maximal effect; for activity change, negative = cytotoxicity: top concentration of the series differs between compounds
# In short: as §1
# [10] = target: Estrogen receptor (Homo sapiens) (UniProt P03372); experiment: qHTS assay to identify small molecule agonists of the estrogen receptor alpha (ER-alpha) signaling pathway using the BG1 cell line (AID 743079); conditions: BG1Luc4E2 cells, ERE-luciferase agonist, 22 h; activation: at 70.3 µM (top of the series) unless noted; note: nearly all actives have a fitted effect of over 20% in size; note: potency is the fitted concentration of half-maximal effect
# [11] = qHTS assay to identify small molecule antagonists of the peroxisome proliferator-activated receptor gamma (PPARg) signaling pathway - cell viability counter screen (AID 743194); conditions: PPARg-bla HEK293H viability, CellTiter-Glo luminescence, 17 h, co-treated with 50 nM rosiglitazone; activity change, negative = cytotoxicity: at 62.6 µM (top of the series) unless noted; note: potency is the fitted concentration of half-maximal effect; nearly all actives have a fitted effect of over 55% in size
# In short: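 PPARg-UAS-bla HEK293H cells were plated, rested 5 h at 37 C, then treated with compounds plus rosiglitazone (50 nM final) for 17 h at 37 C; viability was then read by CellTiter-Glo luminescence after 30 min at room temperature.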
# [12] = target: Estrogen receptor (Homo sapiens) (UniProt P03372); experiment: qHTS assay to identify small molecule antagonists of the estrogen receptor alpha (ER-alpha) signaling pathway (AID 743069; active = well fitted curve in the direction sought with a large enough effect in the signal ratio in the repeat runs, not every such curve was filed as active; inconclusive = weak or mixed curves, or effect the other way; inactive = no such curve, though single readings can be large or run the other way; the % refers to the signal ratio); conditions: HEK293 ER-alpha-UAS-bla, beta-lactamase ratio, antagonist mode; activity, negative = inhibition: at 69.4 µM (top of the series) unless noted
# In short: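 HEK293 cells stably carrying an ER-alpha-UAS-bla beta-lactamase reporter were pre-cultured overnight in 2% charcoal-stripped FBS medium. Test compounds in DMSO were added together with 17beta-estradiol for 18 hr at 37C. Read-out was fluorescence after 2 hr with LiveBLAzer B/G FRET substrate at room temperature.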
# [13] = target: Bile acid receptor (Homo sapiens) (UniProt Q96RI1); experiment: qHTS assay to identify small molecule antagonists of the farnesoid-X-receptor (FXR) signaling pathway (AID 743217; active = well fitted inhibition curve with a large enough effect in the signal ratio in the repeat runs, not every such curve was filed as active; inconclusive = weak or mixed curves, or effect the other way; inactive = no such curve, though single readings can be large or run the other way; the % refers to the signal ratio); conditions: HEK293T FXR-UAS-bla, beta-lactamase ratio, CDCA-stimulated, 16 h; activity change, negative = inhibition: at 62.6 µM (top of the series) unless noted
# In short: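 Beta-lactamase reporter under UAS control in HEK 293T cells; compound exposure 16 h at 37 °C in the presence of chenodeoxycholic acid (50 uM final); signal from B/G FRET substrate after 2 h at room temperature.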
# [14] = qHTS assay for identifying genotoxic compounds that show differential cytotoxicity against isogenic chicken DT40 cell lines with known DNA damage response pathways - Rad54/Ku70 mutant cell line (AID 743015); conditions: DT40 Rad54/Ku70 mutant viability, CellTiter-Glo, 40 h; activity change, negative = cytotoxicity: at 66.8 µM (top of the series) unless noted; note: nearly all actives have a fitted effect of over 60% in size
# [15] = qHTS assay to identify small molecule agonists of the farnesoid-X-receptor (FXR) signaling pathway - cell viability counter screen (AID 743218); conditions: FXR-bla HEK293T viability, CellTiter-Glo luminescence, 16 h; viability change, negative = cytotoxic: at 62.6 µM (top of the series) unless noted; note: nearly all actives have a fitted effect of over 45% in size; note: potency is the fitted concentration of half-maximal effect
# In short: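 In GeneBLAzer FXR-UAS-bla HEK 293T cells, compounds act for 16 h at 37 C. Cell viability is then scored in the reporter wells by CellTiter-Glo, 30 min at RT, luminescence.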
# [16] = qHTS RealTime-Glo MT Cell Viability Assay in HepG2 cells - 24 hour (AID 1224867); note: nearly all actives have a fitted effect of over 50% in size
# In short: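 HepG2 cells (600/well) were dispensed with RealTime-Glo reagents, incubated 5 h at 37 °C, then treated with compounds in DMSO for up to 40 h. Nonlytic NanoLuc luminescence reflecting viable cells was read at each stated time point.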
# [17] = qHTS assay to identify small molecule agonists of the hypoxia (HIF-1) signaling pathway (AID 1224846; active = well fitted activation curve with a large enough effect in the signal ratio in the repeat runs, not every such curve was filed as active; inconclusive = weak or mixed curves; the % refers to the signal ratio); conditions: HRE-bla ME-180 cells, beta-lactamase ratio, 17 h; activation: at 76.8 µM (top of the series) unless noted
# In short: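 Measured by blue/green FRET after loading CCF4-AM: beta-lactamase expressed from a hypoxia response element in ME-180 cells. Test agents were delivered in DMSO and left 17 hrs; cells had been plated 5 hrs earlier in low-serum (0.5% dialyzed FBS) medium.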
# [18] = qHTS assay to identify small molecule antagonists of the estrogen related receptor (ERR) signaling pathway from Tox21 library (AID 1224848); note: nearly all actives have a fitted effect of over 50% in size
# In short: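 Cells: ERR line, 2,000/well; 6 h preincubation 37 C/5% CO2. Cpd in DMSO via pin tool; 18 h, 37 C. ONE-Glo, 30 min RT, luminescence.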
# [19] = A CellTox Green Cytotoxicity Assay to monitor cytotoxicity in HEK293 cells - 40 hour (AID 1224871); note: potency is the fitted concentration of half-maximal effect; nearly all actives have a fitted effect of over 45% in size
# In short: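 Each value comes from one timepoint of a single continuous run in which HEK293 cells with CellTox Green were exposed to compound for up to 40 h at 37 C, dye fluorescence rising with cell death.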
# [20] = qHTS assay to identify small molecule antagonists of the vitamin D receptor (VDR) signaling pathway - cell viability counter screen (AID 743225); conditions: VDR-bla HEK293T viability, CellTiter-Glo luminescence, 16 h; viability change, negative = cytotoxic: at 61 µM (top of the series) unless noted; note: nearly all actives have a fitted effect of over 50% in size; note: potency is the fitted concentration of half-maximal effect
# In short: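 Cytotoxicity counter screen read by CellTiter-Glo luminescence (30 min, room temperature) in the same wells as the VDR-bla antagonist readout. HEK 293T VDR-UAS-bla cells had 16 h at 37C with compound and 3 nM (final) 1-alpha,25-dihydroxyvitamin D3, then 2 h with FRET substrate.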
compound,measurement,setting,value
O=C1c2ccccc2S(=O)(=O)N1CCCCN1CCN(c2ncccn2)CC1,Potency,[1],inconclusive: 33.5 µM [activator]
N[C@@H](CSCCCO)C(=O)O,Potency,[2],inactive
same,Potency,[3],inactive
same,"activity change, negative = cytotoxic",[4],inactive: 3.39% [at 15.8 µM]
same,activation,[5],inactive: -2.61% [at 19 µM]
CC(=O)O[C@@H]1CC2C3CCc4cc(OC(=O)c5ccccc5)ccc4C3CCC2(C)[C@H]1OC(C)=O (stereo partly specified),Potency,[6],inactive
same,Potency,[5],active: 0.0133 µM
same,Potency,[7],"inconclusive: 2.98 µM [cytotoxic, single point]"
Cc1ccc(S(=O)(=O)O)c(C)c1,Potency,[8],inactive
same,Potency,[2],inactive
CNC(=S)N(C)C,Potency,[3],"inconclusive: 46 µM [cytotoxic, partial curve, poor fit]"
same,Potency,[9],"inconclusive: 14.6 µM [cytotoxic, full curve]"
CCC(C)(O)CCC=C(C)C (stereo unspecified),Potency,[10],"inconclusive: 30.6 µM [activator, partial curve]"
same,Potency,[11],"inconclusive: 54.9 µM [rising, partial curve, poor fit]"
same,Potency,[6],inactive
same,Potency,[7],"inconclusive: 15.4 µM [cytotoxic, single point]"
CCCc1ccc(O)cc1,Potency,[12],inactive
same,Potency,[10],"inconclusive: 68.6 µM [activator, partial curve, poor fit]"
same,Potency,[13],inactive
same,Potency,[6],inactive
same,Potency,[7],inactive
Cc1cc(C)cc([N+](=O)[O-])c1,Potency,[14],inactive
same,Potency,[12],inactive
same,Potency,[2],inactive
same,Potency,[7],inactive
COc1ccc(C(C)=O)cc1,"activity, negative = inhibition",[12],inconclusive: 26.4% [at 79.1 µM]
same,Potency,[8],"inconclusive: 22.5 µM [rising, single point]"
same,Potency,[10],active: 44.6 µM
same,Potency,[15],"inconclusive: 566 nM [rising, full curve, poor fit]"
same,Potency,[6],inactive
same,Potency,[16],inactive
same,activation,[5],inconclusive: 10.8%
CC(=O)c1cc(C)oc1C,Potency,[2],inactive
same,Potency,[6],inactive
same,Potency,[17],inactive
CN(C)CCC[C@@]1(c2ccc(F)cc2)OCc2cc(C#N)ccc21,Potency,[6],inactive
same,Potency,[7],"inconclusive: 11.9 µM [cytotoxic, full curve]"
C=CC(=O)OCC1CCCO1 (stereo unspecified),Potency,[8],"inconclusive: 4.36 µM [rising, full curve, poor fit]"
same,Potency,[6],inactive
same,Potency,[4],inactive
N[C@H]1C(O)O[C@H](CO)[C@H](O)[C@@H]1O (stereo partly specified),Potency,[14],inactive
same,Potency,[6],inactive
same,Potency,[1],"inconclusive: 27.3 µM [activator, single point]"
COC(=O)/C=C(/C)N,Potency,[15],inactive
same,Potency,[17],inactive
same,Potency,[18],inactive
CC(C)C(=O)OC(=O)C(C)C,Potency,[8],inactive
same,Potency,[11],"inconclusive: 38.9 µM [rising, partial curve, poor fit]"
same,Potency,[6],inactive
CCC(CO)(CO)COCC(CC)(CO)CO,Potency,[14],inactive
same,Potency,[8],"inconclusive: 17.4 µM [rising, partial curve, poor fit]"
same,Potency,[2],inactive
same,Potency,[17],inactive
COc1cccc(OC)c1,Potency,[13],inactive
same,Potency,[9],inactive
Cc1ccccc1N1CCN(CCc2nnc3n2CCCC3)CC1,Potency,[15],"inconclusive: 266 nM [rising, full curve, poor fit]"
same,Potency,[17],inactive
same,Potency,[7],inactive
same,Potency,[1],inactive
C=CCCC(=O)O,Potency,[14],inactive
same,activation,[10],inconclusive: -4.4% [phenotype inactive]
same,Potency,[17],inactive
CCCC(=O)C(CC)Sc1ccoc1C (stereo unspecified),Potency,[12],inactive
same,Potency,[19],"inconclusive: 54.9 µM [activator, single point]"
same,Potency,[9],inactive
BrC/C=C/CBr,Potency,[8],inactive
same,Potency,[15],inactive
same,Potency,[20],inactive
same,activation,[17],inactive: -1.18% [at 15.8 µM]
CCCCCCCC[Si](OCC)(OCC)OCC,Potency,[14],inactive
same,Potency,[8],active: 54.9 µM
same,Potency,[15],"inconclusive: 977 nM [rising, partial curve, poor fit]"
same,Potency,[6],inactive
CCCCC(O)/C=C(C)/C=C/C=C/C(=O)N1CCCC1=O (stereo unspecified),Potency,[17],inactive
same,Potency,[5],inactive
same,Potency,[7],inactive
CC(=O)Nc1ccc(S(N)(=O)=O)cc1,Potency,[10],inactive
same,Potency,[15],inactive
same,Potency,[3],inactive
same,Potency,[17],inactive
CCc1ccccc1CC,Potency,[15],"inconclusive: 3.2 nM [rising, full curve, poor fit]"
same,Potency,[20],"inconclusive: 200 nM [cytotoxic, full curve, poor fit]"
same,"viability change, negative = cytotoxic",[20],inactive: 4.82% [at 15.1 µM]
same,Potency,[18],inactive
same,Potency,[9],"inconclusive: 28.3 µM [rising, partial curve]"
same,Potency,[5],"inconclusive: 9.94 µM [activator, single point]"
